The list shows a part of the results.
The compounds below were run on T1, CTL2-GFP (C. trachomatis L2/434/Bu, GFP-expressing). Conditions: bulk GFP, single well; 28.5 h, 10 µM; inhibitor.
T1 construct: L2/434/Bu, GFP-expressing
Parameters: species or system HeLa; Intracellular C. trachomatis growth in HeLa cells, bulk GFP fluorescence relative to DMSO

| Compound | % of control remaining [%] |
| --- | --- |
| CCOc1cccc(-c2cncc(N(C)CCN(C)C)n2)c1 [CBK065977] | 150.235 |
| Fc1cccc(COc2nc3ccccc3n3nnnc23)c1 [CBK288198] | 105.473 |
| CCn1cnnc1CNC(=O)N1CCCN(Cc2cccs2)CC1 [CBK305882] | 116.564 |
| O=C1CNC(=O)C2(C/C=C/C[C@H]3COCC[C@@H]3N1)CCN(Cc1ccc(Cl)cn1)CC2 [CBK292132] | 126.954 |
| CN(C)C(=O)c1cc(-c2cccc(N(C)C)c2)cnc1NCC1CC1 [CBK076333] | 166.275 |
| Cn1nc(NC(=O)c2ccco2)c2c(F)cccc21 [CBK057774] | 154.852 |
| CC(=O)[C@H]1C[C@@H](CC(=O)Nc2ccc(Cl)nc2)C1(C)C [CBK091338] | 154.999 |
| O=C1CN(C(=O)Cn2c(-c3cccs3)cc3cccnc32)CCN1 [CBK282543] | 129.503 |
| O=C(CC12CC3CC(CC(C3)C1)C2)Nc1nc[nH]n1 [CBK288208] | 104.781 |
| CCOC(=O)c1c(NC(=O)Cn2nc([N+](=O)[O-])c(Cl)c2C)sc2c1CCC(C)C2 (stereo not drawn) [CBK263054] | 100 |
| N=c1n(CC(=O)O)c2ccccc2n1Cc1ccccc1 [CBK286531] | 113.011 |
| O=C(O)c1ccccc1N1C(=O)c2ccc(Oc3ccc(Oc4ccc5c(c4)C(=O)N(c4ccccc4C(=O)O)C5=O)cc3)cc2C1=O [CBK261186] | 100 |
| O=C(NCCCn1ccnc1)c1cnn2c(C(F)(F)F)cc(-c3cccs3)nc12 [CBK263060] | 100 |
| COCCCn1c(N)c(C(=O)NCC(C)C)c2nc3ccccc3nc21 [CBK126495] | 121.471 |
| Cc1c(C)n(Cc2ccccc2)c2ccc(C(=O)OCCN3CCOCC3)cc12 [CBK262427] | 113.425 |
| CN1CCC(N2CCN(C(=O)Nc3ccc4c(c3)OCCO4)CC2)CC1 [CBK155898] | 138.007 |
| Cc1ccc(OCC(O)CN2CCN(c3ccccn3)CC2)cc1C (stereo not drawn) [CBK058884] | 114.558 |
| Cc1ccc(SCCCn2ccnc2)cc1 [CBK269733C] | 109.243 |
| CS(=O)(=O)Nc1cc(-c2noc([C@@H]3CCCN3C3CCC3)n2)ccn1 [CBK288889] | 113.847 |
| O=C(N/N=C/C1C=Nc2ccccc21)c1cc([N+](=O)[O-])cc([N+](=O)[O-])c1 (stereo not drawn) [CBK261485] | 100 |
| Cc1nnc(N2C(=O)c3oc4ccc(Cl)cc4c(=O)c3C2c2cccnc2)s1 (stereo not drawn) [CBK267010] | 120.784 |
| Cc1ncccc1C(=O)N1CCC(c2cc3ccccc3cn2)CC1 [CBK284854] | 67.5639 |
| O=C(CSc1ncc(C(=O)O)n1-c1ccc(F)cc1)NCCc1ccc(F)cc1 [CBK297513] | 136.166 |
| Cc1ccc2oc([C@H]3CN(C(=O)C(C)(C)NC(=O)OC(C)(C)C)C[C@@H]3C(=O)O)cc2c1 [CBK001600] | 123.608 |
| Cc1ccc(NC(=O)c2ccccc2OCC(=O)NC23CC4CC(CC(C4)C2)C3)cc1Cl [CBK265091] | 100 |
| COc1ccc(NS(=O)(=O)c2ccc3c(c2)N(CC(=O)O)C(=O)CO3)cc1NS(C)(=O)=O [CBK297745] | 115.244 |

| Compound | % of control remaining [%] |
| --- | --- |
| Cc1ccc2oc(C(=O)Nc3sc4c(c3C(=O)NCC3CCCO3)CCC4)c(C)c2c1 (stereo not drawn) [CBK266282] | 145.498 |
| Cc1c(C(=O)Nc2nc(-c3ccc(S(=O)(=O)N4CCOCC4)cc3)cs2)oc2ccc(Cl)cc12 [CBK267663] | 110.627 |
| CCC1(CC)OC(N[C@@H](C)c2ccc(Cl)cc2)=NC1=O [CBK126666] | 138.046 |
| O=C(CN1C2CCC1CC(O)(c1ccco1)C2)Nc1ccc(F)cc1 (stereo not drawn) [CBK284062] | 105.895 |
| N[C@H]1CCN2C(=O)c3cc(-c4ccc(F)cc4F)ccc3NC(=O)[C@H]12 [CBK289345] | 112.388 |
| COc1ccc2c(c1)C(C(C(=O)O)C(=O)O)c1ccccc1O2 (stereo not drawn) [CBK266435] | 163.875 |
| CSc1ccc(-c2nccnc2OC(c2ccccc2)c2ccccc2)cc1 [CBK106797] | 95.3802 |
| COc1cccc(N2CCN(CC(=O)N3CCC(C(N)=O)CC3)CC2)c1 [CBK202881] | 113.523 |
| CN(C)CCN(C)c1cncc(-c2cccc(N(C)C)c2)n1 [CBK065659] | 89.6742 |
| O=C(OCc1ccc(S(=O)(=O)c2ccccc2)cc1)c1cc(O)nc2ccccc12 [CBK266782] | 129.348 |
| c1ccc(CN2CCC(N3CCC(N4CCc5ccccc5C4)CC3)CC2)cc1 [CBK264730G] | 123.541 |
| O=C(O)CC1C(=O)NCCN1Cc1ccc(F)c(F)c1 (stereo not drawn) [CBK270008] | 125.94 |
| CN(C)C(CNc1cncc(-c2cccc(Cl)c2)n1)c1cccnc1 (stereo not drawn) [CBK037247] | 76.9913 |
| Cc1cc(C)nc(N2CCC(CC(=O)NCCOc3cccc(F)c3)CC2)n1 [CBK285996] | 110.721 |
| CCc1ccc(C(=O)C(C)OC(=O)c2nc3nc(C)cc(C)n3n2)cc1 (stereo not drawn) [CBK305023] | 134.88 |
| Cc1ccc(N2CCCN(C(=O)COc3ccccc3F)CC2)nn1 [CBK305261] | 79.63 |
| O=C(Oc1cccc2cccnc12)c1cccc(S(=O)(=O)Oc2cccc3cccnc23)c1 [CBK264545] | 100 |
| O=C(O)C(Cc1ccccc1)NS(=O)(=O)c1ccc(I)cc1 (stereo not drawn) [CBK268807] | 127.119 |
| OC1CCN(Cc2c(-c3cccs3)[nH]c3ncccc23)CC1 [CBK283318] | 149.165 |
| O=C1CNC(=O)C2(C/C=C/C[C@H]3COCC[C@H]3N1)CCN(CCOc1ccccc1)CC2 [CBK292077] | 137.055 |
| Cc1ccc(CNc2cc(C)ccn2)cc1 [CBK005419] | 119.715 |
| CCc1nc(C(C)NCC(=O)Nc2cc(C)nn2C)cs1 (stereo not drawn) [CBK305118] | 140.342 |
| COc1ccc(Cl)cc1C(=O)Nc1cnn(CCCC(=O)O)c1 [CBK269855] | 119.18 |
| O=C(O)C1CCC1C(=O)N1CCN(c2nc3ccc(Cl)cc3s2)CC1 (stereo not drawn) [CBK057108] | 117.856 |
| Brc1ccc(-n2cnnn2)cc1 [CBK027696] | 116.132 |
| Cc1nc(C)c(C(=O)Nc2c(C)noc2C)s1 [CBK200313] | 172.69 |

| Compound | % of control remaining [%] |
| --- | --- |
| COc1ccc(-c2nc(NC(=O)C3CCC(OC)CC3)cnc2-c2cccc(C)c2)cn1 (stereo not drawn) [CBK036813] | 117.629 |
| OCc1c(-c2ccc(F)cc2)[nH]c2ncccc12 [CBK283328] | 118.218 |
| Cc1ccc2oc(C(=O)N(C)Cc3c(C)nn(C)c3C)c(C)c2c1 [CBK281631] | 117.724 |
| COC(=O)CN1C(=O)S/C(=C/c2cc(C)n(-c3ccc4ncccc4c3)c2C)C1=O [CBK265275] | 101.866 |
| COC(=O)c1c(NC(=O)COc2ccc(Br)cc2)sc2c1CCC2 [CBK263369] | 124.903 |
| Cc1cccc(C)c1NC(=O)CN1CCC(Oc2cncc(OCCN3CCOCC3)n2)C1 (stereo not drawn) [CBK084489] | 100 |
| Cc1ccnc(SCc2ccc(F)cc2Cl)n1 [CBK270290] | 108.815 |
| O=C(c1ccccc1F)N1CCC(n2c(=O)oc3ccccc32)CC1 [CBK284346] | 106.908 |
| OCCN1CC2(CCN(CC3COc4ccccc4O3)CC2)c2ccccc21 (stereo not drawn) [CBK143955] | 100 |
| COc1ccccc1CC(=O)N1CCN(Cc2ccco2)C[C@@H]1C [CBK285481] | 92.614 |
| O=C(Nc1ccccc1C(=O)O)c1ccc(Cl)c(S(=O)(=O)N2CCCCC2)c1 [CBK261763] | 93.7481 |
| CCOC(=O)CN1CC(O)CC1c1cccc(C(F)(F)F)c1 (stereo not drawn) [CBK304169] | 94.4363 |
| O=C(c1ccco1)N1CCN(C(=O)c2c(F)cccc2F)CC1 [CBK144479] | 100 |
| CN1c2ccccc2C(c2ccccc2)=NS1(=O)=O [CBK022873] | 102.828 |
| Cn1nc(-c2ccccc2)cc1[C@H]1CN2CC[C@H]1C[C@@H]2CNC(=O)NCc1ccccc1 [CBK289098] | 136.502 |
| CCc1cc(OCc2ccc(Cn3nc(NC(C)=O)c4ccccc43)cc2)c2ccccc2n1 [CBK048402] | 100 |
| Cn1cc(-c2ncc(OCc3ccc4c(c3)OCO4)nc2N)cn1 [CBK145168] | 106.319 |
| O=C(CSc1ccc(Cl)cc1)Nc1ccc(S(=O)(=O)N2CCOCC2)cc1 [CBK262723] | 99.8195 |
| O=C(NCc1cccs1)c1ccc(-n2ccnc2)c(-n2cccc2)c1 [CBK285366] | 103.202 |
| COc1cc(OC)c2nc(C(F)(F)F)cc(Cl)c2c1 [CBK006518] | 153.249 |
| CCCc1cc(C(=O)OC)c(NC(=O)c2c(C)noc2C)s1 [CBK058088] | 129.621 |
| Cc1nc2cccnc2n1C1CCN(C(=O)NCc2ccccc2)CC1 [CBK282291] | 128.774 |
| O=S(=O)(c1ccc(-c2csc(-c3ccccc3)n2)cc1)N1CCCCCC1 [CBK265504] | 100 |
| CC(=O)N1CCc2sccc2C1c1ccc(NC(=O)c2ccc(F)cc2)cc1 (stereo not drawn) [CBK286434] | 130.117 |
| COc1ccc(CNC(=O)C(=O)NCc2ccccc2)cc1 [CBK262158] | 100 |
| CC(C)(C)C1=CC2=NC3(CCCC3)[C@@H]3C[C@@H](O)[C@@H](O)[C@@H]3N2O1 [CBK303245] | 135.308 |

3 entries from above in a different format:
Compound	% of control remaining [%]
Cc1cccc(C)c1NC(=O)CN1CCC(Oc2cncc(OCCN3CCOCC3)n2)C1 (stereo not drawn) [CBK084489]	100
Cc1ccnc(SCc2ccc(F)cc2Cl)n1 [CBK270290]	108.815
O=C(c1ccccc1F)N1CCC(n2c(=O)oc3ccccc32)CC1 [CBK284346]	106.908

Retrieved one by one from above:

| Compound | % of control remaining [%] |
| --- | --- |
| O=C(c1ccccc1F)N1CCC(n2c(=O)oc3ccccc32)CC1 [CBK284346] | 106.908 |
| Cc1cccc(C)c1NC(=O)CN1CCC(Oc2cncc(OCCN3CCOCC3)n2)C1 (stereo not drawn) [CBK084489] | 100 |
